Construct, isoform or probe ends are uncertain for at least one entry. Negatives hold for the conditions tested. Protein sequences can lack the tags named with them.
molecular target: T1, SmFTZ-F1 (Schistosoma mansoni) (UniProt A0A5K4F6G6); test: EMSA; settings: LightShift Chemiluminescent EMSA kit per manufacturer, 20 uL reactions, PURExpress IVT protein, 20- or 200-fold unlabeled competitor; protein translated in vitro
T1 sequence (looked up, limits assumed): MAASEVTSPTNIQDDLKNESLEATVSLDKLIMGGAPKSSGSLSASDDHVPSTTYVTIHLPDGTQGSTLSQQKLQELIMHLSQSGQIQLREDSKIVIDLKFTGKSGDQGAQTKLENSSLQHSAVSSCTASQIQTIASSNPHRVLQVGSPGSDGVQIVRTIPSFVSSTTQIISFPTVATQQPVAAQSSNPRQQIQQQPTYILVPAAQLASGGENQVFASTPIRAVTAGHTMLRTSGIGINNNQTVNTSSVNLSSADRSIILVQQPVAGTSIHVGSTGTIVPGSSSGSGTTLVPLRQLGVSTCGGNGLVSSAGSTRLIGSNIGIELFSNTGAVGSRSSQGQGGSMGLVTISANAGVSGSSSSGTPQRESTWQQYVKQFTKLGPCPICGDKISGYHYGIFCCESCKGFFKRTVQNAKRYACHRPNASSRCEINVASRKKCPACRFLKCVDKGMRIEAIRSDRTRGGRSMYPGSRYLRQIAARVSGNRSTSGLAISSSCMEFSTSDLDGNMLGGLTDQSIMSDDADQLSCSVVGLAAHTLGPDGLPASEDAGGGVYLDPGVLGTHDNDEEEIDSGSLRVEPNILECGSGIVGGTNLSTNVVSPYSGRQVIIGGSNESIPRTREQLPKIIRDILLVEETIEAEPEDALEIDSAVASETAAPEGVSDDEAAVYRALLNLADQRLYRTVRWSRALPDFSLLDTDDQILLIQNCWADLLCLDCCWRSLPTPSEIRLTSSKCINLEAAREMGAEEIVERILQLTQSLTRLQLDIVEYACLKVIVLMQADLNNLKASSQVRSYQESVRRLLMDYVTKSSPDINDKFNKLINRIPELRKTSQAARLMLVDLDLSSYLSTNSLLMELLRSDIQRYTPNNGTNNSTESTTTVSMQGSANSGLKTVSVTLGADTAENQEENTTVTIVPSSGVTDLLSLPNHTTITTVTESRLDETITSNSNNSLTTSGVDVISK

Sequence	binding result
AAAATAATGAGCAAGGTAATGCATATTTC (double strand) [NS competitor (Smp_075350 RE)]	no binding

same assay, conditions: LightShift Chemiluminescent EMSA kit per manufacturer, 20 uL reactions, PURExpress IVT protein, 20- or 200-fold unlabeled competitor; protein translated in vitro; label: biotin 3' end, both strands

Sequence	binding result
AATGTTTTCCAAGGTCATTGAATGTT (double strand) [Smp_332390 RE]	binds
TGTCCAGGACAAGGTTAGATGGGGA (double strand) [Smp_207040 RE]	no binding
ACGGTAAGTGAAGGTTTCCCAATTAAGATG (double strand) [Smp_342050 RE #2]	no binding
GTAAACAAGGAAGGTTGAACATGAGGTCAGC (double strand) [Smp_003600 RE #3]	no binding
AACCAATTTCAAGGTCAGAATCTTTA (double strand) [Smp_344050 RE]	binds
ACACGGGCAGAGAAAGTCAAGGTACAAGAAGACTAC (double strand) [Smp_200180 RE #1]	no binding
AGTTTTACATAAGGTTATGATAGTCAGCTTT (double strand) [Smp_245720 RE #4]	no binding
TGACACTGTGAAGGTCGTTTGATAT (double strand) [Smp_045490 RE]	no binding
CCTTTAAATCAAGGTTAAAACACCC (double strand) [Smp_319070 RE]	binds
AGCTTCAGGTCAAGGTCAGAG (double strand) [DR01 RE]	binds
CAGTAAGTTGAAGGTTTTGAAATA (double strand) [Smp_315490 RE #3]	no binding
ATTCTCTACAAGGTCAAGTACGG (double strand) [Smp_166290 RE #4]	binds
ACAAGCAAGGGGAAGGTTGACATCATTTA (double strand) [Smp_042390 RE]	no binding
AGTGATATCCAAGGTCATTTAAAG (double strand) [Smp_174060 RE #2]	binds
TTTACCGATTGAAGGTGACAGTGTAAGAG (double strand) [Smp_003600 RE #2]	no binding
TTTTAATACCAAGGTTGGGCTTGAT (double strand) [Smp_204150 RE]	no binding
AACCGAACTATGAAGGTCCATTTAGA (double strand) [Smp_042670 RE]	no binding

Sequence	binding result
AGTTATGCAAAGTTAAGGTCAAACCCATTACAC (double strand) [Smp_245720 RE #1]	no binding
CACAAGTCATCTAGGTTTGATACAATGAGTGATC (double strand) [Smp_075350 RE #2]	no binding
TCCAAATATCAAGGTAGGTCACTTA (double strand) [Smp_342050 RE #1]	no binding
ATGAGAATTCAAGGTAATCTAATTT (double strand) [Smp_003600 RE #1]	no binding
CAACAAAAATTCAGAAGGTCAATGGAAGATGTG (double strand) [Smp_200180 RE #3]	no binding
TACCACAATCAAGGTGACGTTATTA (double strand) [Smp_315490 RE #1]	no binding
AGACTATTCTCAAGGTTAGAGAATCT (double strand) [Smp_058790 RE]	binds
ATTTCTTACCAAGGCCATAAAATAC (double strand) [Smp_174060 RE #1]	no binding
TATCAAGACTCAAGGTATTTCAAAGCCCTT (double strand) [Smp_200180 RE #2]	no binding
GTCTGTCAAAAGAAGGTTGAGAAGATTGG (double strand) [Smp_245720 RE #3]	no binding
AAGGACACGTGAAGGTTATAATTAGGA (double strand) [Smp_331380 (meg-8.3) RE #1]	binds
GGTTGTCCCAAGGTCACCGAGTCAA (double strand) [FTZ-F1 RE #2 (D. melanogaster)]	binds
TTGCATTTATAATAAGGTCAAAACTAT (double strand) [Smp_200180 RE #4]	no binding
GCATAACTATCAAGGTGTATAATCTCTG (double strand) [Smp_245720 RE #2]	no binding
GATCCACCAAGGTCATGGCA (double strand) [SF-1 RE #1]	binds
GGTTGTCTCAAGGTCACCGAGTCAA (double strand) [FTZ-F1 RE #1 (D. melanogaster)]	binds
AATAACAGGCTTTTTAAGGTCAGAGCAGGTGTTA (double strand) [Smp_315490 RE #2]	no binding

Source: publication PMC8673669
